Laboratory results taken from article PMC7862700.
Only a part is listed here, and it is no random draw. At the low end of the ranking, values are background and their order means little.

By UniProt entry, the sequences of proteins in these tests, tags left out. Where a name states a change or a piece, a line headed by the entry shows the natural chain unless it says otherwise.
UniProt Q01892: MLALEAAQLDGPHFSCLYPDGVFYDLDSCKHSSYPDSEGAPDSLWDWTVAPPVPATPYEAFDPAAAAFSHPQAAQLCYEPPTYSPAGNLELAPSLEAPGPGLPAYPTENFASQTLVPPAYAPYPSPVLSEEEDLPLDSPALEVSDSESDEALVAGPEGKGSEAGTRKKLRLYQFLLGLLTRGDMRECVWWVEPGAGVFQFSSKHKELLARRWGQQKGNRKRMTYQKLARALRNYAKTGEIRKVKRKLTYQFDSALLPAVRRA
UniProt P41161: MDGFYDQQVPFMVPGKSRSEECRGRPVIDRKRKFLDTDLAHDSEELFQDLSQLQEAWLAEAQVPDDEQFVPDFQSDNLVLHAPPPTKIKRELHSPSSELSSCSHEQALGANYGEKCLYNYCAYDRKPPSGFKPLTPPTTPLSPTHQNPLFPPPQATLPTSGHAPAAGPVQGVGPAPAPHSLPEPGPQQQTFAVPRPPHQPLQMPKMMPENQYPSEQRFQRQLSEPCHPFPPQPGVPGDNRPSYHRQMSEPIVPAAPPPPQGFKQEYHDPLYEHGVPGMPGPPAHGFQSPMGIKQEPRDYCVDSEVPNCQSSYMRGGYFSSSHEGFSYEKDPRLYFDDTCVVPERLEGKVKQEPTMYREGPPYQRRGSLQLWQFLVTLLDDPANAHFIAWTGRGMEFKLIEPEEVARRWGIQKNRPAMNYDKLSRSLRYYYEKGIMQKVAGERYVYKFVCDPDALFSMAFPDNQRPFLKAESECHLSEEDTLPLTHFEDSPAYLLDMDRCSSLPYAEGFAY
UniProt Q99607: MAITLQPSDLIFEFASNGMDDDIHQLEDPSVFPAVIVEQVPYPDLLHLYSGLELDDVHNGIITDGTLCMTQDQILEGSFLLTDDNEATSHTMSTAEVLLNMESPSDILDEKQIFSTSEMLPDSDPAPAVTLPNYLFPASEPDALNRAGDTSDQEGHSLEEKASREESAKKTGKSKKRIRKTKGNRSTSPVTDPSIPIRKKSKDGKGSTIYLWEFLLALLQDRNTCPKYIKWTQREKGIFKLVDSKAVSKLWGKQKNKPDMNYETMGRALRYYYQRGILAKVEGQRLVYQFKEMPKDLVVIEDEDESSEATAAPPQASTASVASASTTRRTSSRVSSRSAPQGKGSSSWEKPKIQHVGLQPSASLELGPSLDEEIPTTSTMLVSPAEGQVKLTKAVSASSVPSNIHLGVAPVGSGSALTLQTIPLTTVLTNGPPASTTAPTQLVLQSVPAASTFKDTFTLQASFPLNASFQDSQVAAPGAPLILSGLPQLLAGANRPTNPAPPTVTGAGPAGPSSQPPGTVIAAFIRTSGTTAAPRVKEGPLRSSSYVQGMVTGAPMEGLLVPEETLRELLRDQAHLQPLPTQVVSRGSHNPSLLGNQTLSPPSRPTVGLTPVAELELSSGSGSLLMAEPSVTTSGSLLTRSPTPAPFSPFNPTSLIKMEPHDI

Columns and labels:
Experiment in all cases: DAPPL (digital affinity profiling via proximity ligation, sequencing)
Conditions in all cases: 10 mM Tris-HCl pH 7.5, 50 mM NaCl, 1 mM DTT, 4% glycerol, room temperature, 30 min; GST-TFs on glutathione beads, 16-mer random dsDNA library, 0.1% …; high values mean tight binding; double strand, one strand shown; scale: fold enrichment (6-mer frequency, TF over GST control)
FLI1 = target: T1, FLI1 (UniProt Q01543)
T1 sequence: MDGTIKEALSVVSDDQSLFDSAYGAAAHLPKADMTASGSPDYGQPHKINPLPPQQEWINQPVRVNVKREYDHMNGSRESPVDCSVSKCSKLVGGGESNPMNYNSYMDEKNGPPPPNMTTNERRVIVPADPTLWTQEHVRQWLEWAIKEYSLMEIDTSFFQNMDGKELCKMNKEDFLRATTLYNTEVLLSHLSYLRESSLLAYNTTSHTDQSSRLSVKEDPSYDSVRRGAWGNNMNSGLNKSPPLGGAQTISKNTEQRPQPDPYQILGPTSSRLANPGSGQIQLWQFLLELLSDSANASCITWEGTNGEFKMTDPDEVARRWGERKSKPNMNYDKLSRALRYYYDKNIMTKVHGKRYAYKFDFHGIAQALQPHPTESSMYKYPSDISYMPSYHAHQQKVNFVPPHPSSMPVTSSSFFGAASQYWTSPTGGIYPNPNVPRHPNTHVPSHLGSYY

EHF = target: T2, EHF (UniProt Q9NZC4)
T2 sequence: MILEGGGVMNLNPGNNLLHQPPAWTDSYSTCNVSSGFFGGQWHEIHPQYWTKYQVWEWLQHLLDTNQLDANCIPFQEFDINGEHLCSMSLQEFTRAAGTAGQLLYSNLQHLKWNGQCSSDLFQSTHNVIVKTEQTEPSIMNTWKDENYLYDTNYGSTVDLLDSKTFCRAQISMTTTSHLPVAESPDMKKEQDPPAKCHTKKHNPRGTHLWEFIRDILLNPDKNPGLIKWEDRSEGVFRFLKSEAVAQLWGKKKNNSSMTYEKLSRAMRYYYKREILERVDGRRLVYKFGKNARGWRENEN

SPIB = SPIB (UniProt Q01892)
ETV5 = ETV5 (UniProt P41161)
ELF4 = ELF4 (UniProt Q99607)
ETV2 = target: T3, ETV2 (UniProt O00321)
T3 sequence: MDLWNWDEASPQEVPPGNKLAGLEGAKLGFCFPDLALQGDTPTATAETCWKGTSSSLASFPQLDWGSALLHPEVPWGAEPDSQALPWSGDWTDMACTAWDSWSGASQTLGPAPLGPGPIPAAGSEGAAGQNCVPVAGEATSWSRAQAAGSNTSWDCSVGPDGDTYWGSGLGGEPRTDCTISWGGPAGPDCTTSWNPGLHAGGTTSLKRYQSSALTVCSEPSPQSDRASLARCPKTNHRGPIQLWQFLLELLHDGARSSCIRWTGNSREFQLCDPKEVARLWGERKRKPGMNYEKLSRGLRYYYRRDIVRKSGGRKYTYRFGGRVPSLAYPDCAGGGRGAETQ

ETV3L = target: T4, ETV3L (UniProt Q6ZN32)
T4 sequence: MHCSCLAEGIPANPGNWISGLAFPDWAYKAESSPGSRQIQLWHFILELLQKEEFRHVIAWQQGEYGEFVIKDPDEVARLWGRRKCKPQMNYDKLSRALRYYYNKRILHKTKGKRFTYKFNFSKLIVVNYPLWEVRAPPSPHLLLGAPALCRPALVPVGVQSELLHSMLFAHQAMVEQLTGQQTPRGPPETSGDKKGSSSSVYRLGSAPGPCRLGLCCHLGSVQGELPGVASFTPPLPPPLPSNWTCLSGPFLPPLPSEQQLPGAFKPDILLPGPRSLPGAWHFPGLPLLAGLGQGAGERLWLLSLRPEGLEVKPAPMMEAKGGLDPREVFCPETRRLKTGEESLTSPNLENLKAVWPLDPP

Row | Sequence | binding signal (FLI1) | binding signal (EHF) | binding signal (SPIB) | binding signal (ETV5) | binding signal (ELF4) | binding signal (ETV2) | binding signal (ETV3L)
1 | GCAAGG | 0.83 | 0.793 | 0.768 | 0.773 | 0.807 | 0.757 | 0.829
2 | TAGGAG | 0.397 | 0.394 | 0.391 | 0.404 | 0.387 | 0.4 | 0.377
3 | GGATGA | 0.927 | – | – | 0.963 | 0.919 | 0.759 | 0.957
4 | TCGCAG | 0.862 | 0.841 | – | 0.846 | 0.893 | 0.982 | 0.846
5 | ATCGGG | 0.49 | 0.447 | 0.448 | 0.459 | 0.457 | 0.434 | 0.454
6 | CAGAGT | 0.649 | 0.629 | 0.574 | 0.671 | 0.629 | 0.593 | 0.663
7 | TGAGCC | 0.856 | 0.84 | 0.803 | 0.829 | 0.843 | 0.898 | 0.758
8 | GGTGAT | 0.796 | 0.788 | 0.894 | 0.77 | 0.889 | 0.874 | 0.806
9 | GTCTGT | 0.935 | 0.906 | 0.938 | 0.887 | 0.932 | 0.858 | 0.887
10 | CAGGGT | 0.901 | 0.78 | 0.823 | 0.833 | 0.871 | 0.735 | 0.85
11 | AGCGAG | 0.704 | 0.632 | 0.586 | 0.641 | 0.652 | 0.756 | 0.633
12 | GGAGAA | 0.338 | 0.323 | 0.314 | 0.349 | 0.331 | 0.285 | 0.346
13 | GAACAG | 0.909 | – | – | 0.93 | 0.924 | 0.906 | 0.948
14 | TGCAGG | 0.961 | 0.976 | – | 0.986 | 0.948 | 1.03 | 0.954
15 | TCGGTC | 0.544 | 0.627 | 0.632 | 0.541 | 0.582 | 0.569 | 0.59
16 | GGAGCT | 0.568 | 0.57 | 0.627 | 0.618 | 0.55 | 0.522 | 0.6
17 | GTTGAG | 0.715 | 0.621 | 0.636 | 0.652 | 0.7 | 0.732 | 0.669
18 | AGGTAG | 0.68 | 0.683 | 0.698 | 0.638 | 0.644 | 0.723 | 0.69
19 | GGGTGC | 0.719 | 0.753 | 0.765 | 0.844 | 0.811 | 0.801 | 0.781
20 | AGCGTA | 0.918 | 0.918 | – | 0.924 | 0.94 | 0.906 | 0.961
21 | GACTCA | 1.06 | 0.929 | – | 0.949 | 0.993 | 0.981 | 0.9

Row | Sequence | binding signal (FLI1) | binding signal (EHF) | binding signal (SPIB) | binding signal (ETV5) | binding signal (ELF4) | binding signal (ETV2) | binding signal (ETV3L)
22 | GGTAGG | 0.604 | 0.627 | 0.697 | 0.624 | 0.626 | 0.717 | 0.639
23 | TTCGTG | 0.886 | 0.847 | – | 0.91 | 0.877 | 0.751 | 0.969
24 | GATCCG | 0.989 | 0.95 | – | 0.993 | 0.9 | 0.941 | 0.979
25 | CGGGGA | 0.424 | 0.459 | 0.441 | 0.413 | 0.42 | 0.463 | 0.39
26 | AGGTCA | 0.739 | 0.712 | 0.765 | 0.746 | 0.759 | 0.73 | 0.755
27 | TGCGAG | 0.898 | 0.929 | – | 0.917 | 0.878 | 0.849 | 0.875
28 | GAAGGA | 0.694 | 0.788 | 0.779 | 0.792 | 0.69 | 0.726 | 0.701
29 | GGAGCA | 0.452 | 0.486 | 0.428 | 0.48 | 0.463 | 0.375 | 0.448
30 | GTGGGA | 0.59 | 0.582 | 0.545 | 0.596 | 0.56 | 0.601 | 0.575
31 | GAGTGC | 0.704 | 0.698 | 0.61 | 0.691 | 0.731 | 0.739 | 0.797
32 | GTGGTG | 0.871 | 0.889 | – | 0.936 | 0.904 | 0.732 | 0.95
33 | GGGGAG | 0.413 | 0.361 | 0.392 | 0.414 | 0.362 | 0.455 | 0.424
34 | GAGCAC | 0.771 | 0.75 | 0.689 | 0.698 | 0.719 | 0.69 | 0.798
35 | GCGCGA | 0.697 | 0.761 | 0.755 | 0.733 | 0.749 | 0.767 | 0.72
36 | GCGCCA | 0.76 | 0.745 | 0.806 | 0.751 | 0.77 | 0.914 | 0.804
37 | CGGTAC | 0.969 | 0.956 | – | 0.952 | 0.879 | 0.822 | 0.993
38 | TCAGTC | 0.671 | 0.58 | 0.593 | 0.58 | 0.65 | 0.487 | 0.606
39 | GCGGGA | 0.42 | 0.377 | 0.362 | 0.382 | 0.364 | 0.344 | 0.378
40 | GGAGTT | 0.442 | 0.47 | 0.457 | 0.465 | 0.442 | 0.503 | 0.43
41 | TAAGTG | 0.771 | 0.847 | 0.785 | 0.818 | 0.814 | 0.833 | 0.79
42 | ATCGGT | 0.693 | 0.746 | 0.642 | 0.681 | 0.67 | 0.698 | 0.693

Row | Sequence | binding signal (FLI1) | binding signal (EHF) | binding signal (SPIB) | binding signal (ETV5) | binding signal (ELF4) | binding signal (ETV2) | binding signal (ETV3L)
43 | GTCGTC | 0.758 | 0.712 | 0.777 | 0.76 | 0.729 | 0.823 | 0.708
44 | GGTTCG | 0.791 | 0.804 | 0.774 | 0.848 | 0.778 | 0.827 | 0.828
45 | GAACGG | 0.583 | 0.591 | 0.609 | 0.621 | 0.628 | 0.758 | 0.652
46 | GGGCGC | 0.616 | 0.623 | 0.6 | 0.617 | 0.647 | 0.642 | 0.581
47 | CGTCGT | 0.895 | 0.898 | 0.82 | 0.842 | 0.822 | 0.856 | 0.918
48 | CAGTGG | 0.531 | 0.48 | 0.443 | 0.492 | 0.481 | 0.47 | 0.46
49 | GAGTTT | 0.594 | 0.596 | 0.618 | 0.611 | 0.633 | 0.574 | 0.641
50 | ACGCAG | 0.833 | 0.751 | 0.765 | 0.818 | 0.784 | 0.887 | 0.733
51 | GAGAGG | 0.495 | 0.527 | 0.524 | 0.535 | 0.503 | 0.447 | 0.478
52 | GTAGTC | 0.697 | 0.711 | 0.694 | 0.641 | 0.7 | 0.706 | 0.647
53 | GACAGC | 0.774 | 0.844 | 0.803 | 0.788 | 0.753 | 0.77 | 0.791
54 | ACCAGA | 0.887 | 0.878 | 0.895 | 0.913 | 0.946 | 1.01 | 0.958
55 | GGACAA | 0.822 | 0.752 | 0.819 | 0.783 | 0.816 | 0.838 | 0.766
56 | GTGAGC | 0.384 | 0.417 | 0.351 | 0.372 | 0.405 | 0.411 | 0.402
57 | GGGTAC | 0.869 | 0.864 | 0.922 | 0.866 | 0.899 | 0.74 | 0.893
58 | AAGAGC | 0.915 | 0.871 | 0.81 | 0.846 | 0.844 | 0.883 | 0.822
59 | GTGTGC | 0.798 | 0.78 | 0.941 | 0.878 | 0.925 | 0.998 | 0.848
60 | AGGCAG | 0.531 | 0.533 | 0.556 | 0.58 | 0.531 | 0.588 | 0.537
61 | CAAGTC | 0.881 | 0.851 | 0.814 | 0.795 | 0.843 | 0.869 | 0.857

Some of the entries above in another layout:
GATCCG
  binding signal (FLI1): 0.989; binding signal (EHF): 0.95; binding signal (ETV5): 0.993; binding signal (ELF4): 0.9; binding signal (ETV2): 0.941; binding signal (ETV3L): 0.979
CGGGGA
  binding signal (FLI1): 0.424; binding signal (EHF): 0.459; binding signal (SPIB): 0.441; binding signal (ETV5): 0.413; binding signal (ELF4): 0.42; binding signal (ETV2): 0.463; binding signal (ETV3L): 0.39
AGGTCA
  binding signal (FLI1): 0.739; binding signal (EHF): 0.712; binding signal (SPIB): 0.765; binding signal (ETV5): 0.746; binding signal (ELF4): 0.759; binding signal (ETV2): 0.73; binding signal (ETV3L): 0.755
